# Assay results: patent US5705356A, “Reagent for invitro diagnostic determination of bicarbonate” (Trace Scientific Limited, priority 1993, dated 1998)
# At least one compound was matched to its structure with a doubt left.
# Tested on: L-Lactate Dehydrogenase (LDH)
# Experiment: Relative activity of substrates with L-lactate dehydrogenase (vs L-lactate)
# Format: biochemical, Lactobacillus sp.
# Settings: relative to L-Lactate
smiles,measurement,value
O=C(O)CCC(=O)C(=O)O [2-oxoglutarate],Relative Activity,0.09%
